# Results reported in paper PMC4599285.
# The chains behind the UniProt entries cited, without tags or fusion partners. Where a name states a change or a piece, a line headed by the entry shows the natural chain unless it says otherwise.
# UniProt P31749: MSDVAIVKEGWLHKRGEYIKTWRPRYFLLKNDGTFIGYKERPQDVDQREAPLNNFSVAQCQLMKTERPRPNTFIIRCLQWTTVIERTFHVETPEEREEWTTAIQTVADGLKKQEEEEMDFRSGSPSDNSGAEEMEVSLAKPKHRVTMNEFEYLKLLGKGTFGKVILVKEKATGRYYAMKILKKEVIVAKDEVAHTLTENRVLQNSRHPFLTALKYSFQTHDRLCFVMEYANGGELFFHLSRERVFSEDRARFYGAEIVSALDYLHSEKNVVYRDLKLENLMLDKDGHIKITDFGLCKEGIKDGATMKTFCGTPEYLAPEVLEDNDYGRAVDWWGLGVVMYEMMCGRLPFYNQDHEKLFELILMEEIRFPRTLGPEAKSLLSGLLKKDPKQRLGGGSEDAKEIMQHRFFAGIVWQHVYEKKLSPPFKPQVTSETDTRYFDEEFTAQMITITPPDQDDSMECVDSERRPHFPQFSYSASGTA
# UniProt P10415: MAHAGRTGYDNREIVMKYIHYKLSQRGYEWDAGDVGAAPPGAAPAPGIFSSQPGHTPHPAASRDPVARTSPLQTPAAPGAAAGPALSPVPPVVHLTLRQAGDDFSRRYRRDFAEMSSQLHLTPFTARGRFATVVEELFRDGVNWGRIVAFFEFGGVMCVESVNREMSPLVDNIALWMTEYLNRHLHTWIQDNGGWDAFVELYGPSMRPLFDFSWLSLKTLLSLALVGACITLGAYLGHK
# Target: GST-AKT (UniProt P31749)
# Test: pull-down; GST pull-down: Re-ASPP2 or Re-Bcl-2 cultured with GST-AKT; immunoblot; both purified
substance,measurement,value
Recombinant Bcl-2 (Re-Bcl-2) (from UniProt P10415),binding,binds

# Results are given in words; binding and its absence hold for the method and conditions named. Binding can be weak; no strength is given.
